PubChem BioAssay AID1259283 | Sanger Institute – 2017
The deposit covers 794 reagents; this is an unselected part. In the full data, 14 (1.8%) are marked active. 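Calls reflect only viability loss without drug; drug synergy does not enter the call.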 Viability is capped at 1. Further read-outs or replicates are left out here. Not stated in the record: the amount of reagent, the time to read-out.

Assay: 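Kinases whose silencing adds to targeted drugs in killing colon cancer cells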 (primary screen)
Cell system: HT115 colorectal cancer cells
Reagent: siRNA pool against human genes
Challenge: anchor drug given one day after siRNA: BYL719 at 1 µM, cetuximab at 5 µg/ml, trametinib at 10 nM, or DMSO vehicle alone
Measured: 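Viability normalised to non-targeting pool #2 wells and averaged over replicates, robust z-score against control wells, and a synergy score for each of three drugs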
Direction: robust z-score, knock-down alone: higher = more viable cells after knock-down; viability, DMSO vs non-targeting control: higher = more viable cells
Active means: 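a gene counts as essential when its robust z-score with knock-down alone is below -3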
Calls: active = essential (z below -3, no drug); inactive = no change without drug

Silencing of STK33 (GeneID 65975) [SID56479053] gave: robust z-score, knock-down alone 0.262; viability, DMSO vs non-targeting control (fraction of control) = 0.951; inactive.
Depletion of MAP3K1 (GeneID 4214) [SID152150888] resulted in: robust z-score, knock-down alone 0.314; viability, DMSO vs non-targeting control (fraction of control) = 0.956; inactive.
For STK32A (GeneID 202374) [SID152151517] the deposit lists robust z-score, knock-down alone 0.789; viability, DMSO vs non-targeting control (fraction of control) = 1; inactive.
Against MYLK (GeneID 4638) [SID152147192] the deposit lists robust z-score, knock-down alone -0.0632; viability, DMSO vs non-targeting control (fraction of control) = 0.921; inactive.
Depletion of DCK (GeneID 1633) [SID56479088] resulted in: robust z-score, knock-down alone -1.01; viability, DMSO vs non-targeting control (fraction of control) = 0.834; inactive.
Against CDKL2 (GeneID 8999) [SID152156267] the deposit lists robust z-score, knock-down alone -1.26; viability, DMSO vs non-targeting control (fraction of control) = 0.811; inactive.
After knock-down of PDGFRB (GeneID 5159) [SID152152554], the screen gave robust z-score, knock-down alone -1.14; viability, DMSO vs non-targeting control (fraction of control) = 0.821; inactive.
With knock-down of STK16 (GeneID 8576) [SID152154415], the record shows robust z-score, knock-down alone 0.744; viability, DMSO vs non-targeting control (fraction of control) = 0.996; inactive.
Against NUAK1 (GeneID 9891) [SID56478923] the deposit lists robust z-score, knock-down alone 0.456; viability, DMSO vs non-targeting control (fraction of control) = 0.969; inactive.
Depletion of IRAK3 (GeneID 11213) [SID56478864] gave: robust z-score, knock-down alone -1.95; viability, DMSO vs non-targeting control (fraction of control) = 0.747; inactive.
CILK1 (GeneID 22858) [SID152149076] scored robust z-score, knock-down alone -0.0391; viability, DMSO vs non-targeting control (fraction of control) = 0.923; inactive.
Depletion of MELK (GeneID 9833) [SID56478756] gave: robust z-score, knock-down alone -0.135; viability, DMSO vs non-targeting control (fraction of control) = 0.915; inactive.
Depletion of PANK2 (GeneID 80025) [SID152147442] came out at: robust z-score, knock-down alone 0.641; viability, DMSO vs non-targeting control (fraction of control) = 0.986; inactive.
For TRIO (GeneID 7204) [SID56478974], the values are robust z-score, knock-down alone 0.672; viability, DMSO vs non-targeting control (fraction of control) = 0.989; inactive.
With knock-down of CDC7 (GeneID 8317) [SID56478594] the results were robust z-score, knock-down alone 0.601; viability, DMSO vs non-targeting control (fraction of control) = 0.983; inactive.
After knock-down of CHD4 (GeneID 1108) [SID152156048], the screen gave robust z-score, knock-down alone -2.95; viability, DMSO vs non-targeting control (fraction of control) = 0.654; inactive.
For CAMK2G (GeneID 818) [SID56478805], the entry reads robust z-score, knock-down alone 0.789; viability, DMSO vs non-targeting control (fraction of control) = 1; inactive.
Against CDK11B (GeneID 984) [SID152152958], the entry reads robust z-score, knock-down alone -0.483; viability, DMSO vs non-targeting control (fraction of control) = 0.882; inactive.
For TWF2 (GeneID 11344) [SID56478547], the entry reads robust z-score, knock-down alone 0.789; viability, DMSO vs non-targeting control (fraction of control) = 1; inactive.
After knock-down of ERBB3 (GeneID 2065) [SID135620617], the record shows robust z-score, knock-down alone 0.789; viability, DMSO vs non-targeting control (fraction of control) = 1; inactive.
Depletion of HK3 (GeneID 3101) [SID56479104] gave: robust z-score, knock-down alone 0.789; viability, DMSO vs non-targeting control (fraction of control) = 1; inactive.
For MYLK3 (GeneID 91807) [SID152154935] the deposit lists robust z-score, knock-down alone 0.418; viability, DMSO vs non-targeting control (fraction of control) = 0.966; inactive.
Against CAMK1G (GeneID 57172) [SID56478930] the deposit lists robust z-score, knock-down alone 0.789; viability, DMSO vs non-targeting control (fraction of control) = 1; inactive.

Part of the list above, reformatted:
Gene	PubChem SID	robust z-score, knock-down alone	viability, DMSO vs non-targeting control (fraction of control)	Call
ERBB3 (GeneID 2065)	SID135620617	0.789	1	inactive
HK3 (GeneID 3101)	SID56479104	0.789	1	inactive

Further records:
After knock-down of ACVR2B (GeneID 93) [SID135620907], the screen gave robust z-score, knock-down alone -0.167; viability, DMSO vs non-targeting control (fraction of control) = 0.912; inactive.
With knock-down of TSSK3 (GeneID 81629) [SID152155438] the results were robust z-score, knock-down alone -0.804; viability, DMSO vs non-targeting control (fraction of control) = 0.853; inactive.
PI4KA (GeneID 5297) [SID135621251] showed robust z-score, knock-down alone 0.789; viability, DMSO vs non-targeting control (fraction of control) = 1; inactive.
After knock-down of MAPKAPK2 (GeneID 9261) [SID56478668], the screen gave robust z-score, knock-down alone 0.789; viability, DMSO vs non-targeting control (fraction of control) = 1; inactive.
After knock-down of SKAP1 (GeneID 8631) [SID152154182], the screen gave robust z-score, knock-down alone 0.565; viability, DMSO vs non-targeting control (fraction of control) = 0.979; inactive.
Against PEAK1 (GeneID 79834) [SID152152075], the values are robust z-score, knock-down alone 0.789; viability, DMSO vs non-targeting control (fraction of control) = 1; inactive.
Depletion of STYK1 (GeneID 55359) [SID56478493] came out at: robust z-score, knock-down alone -1.1; viability, DMSO vs non-targeting control (fraction of control) = 0.825; inactive.
Against GUCY2C (GeneID 2984) [SID152148747], the entry reads robust z-score, knock-down alone -0.318; viability, DMSO vs non-targeting control (fraction of control) = 0.898; inactive.
EPHB4 (GeneID 2050) [SID152156322] scored robust z-score, knock-down alone 0.35; viability, DMSO vs non-targeting control (fraction of control) = 0.959; inactive.
For MAP2K5 (GeneID 5607) [SID135620764], the entry reads robust z-score, knock-down alone 0.191; viability, DMSO vs non-targeting control (fraction of control) = 0.945; inactive.
For CDKN1B (GeneID 1027) [SID56478655] the deposit lists robust z-score, knock-down alone 0.789; viability, DMSO vs non-targeting control (fraction of control) = 1; inactive.
Knock-down of RNASEL (GeneID 6041) [SID56478962] came out at: robust z-score, knock-down alone 0.789; viability, DMSO vs non-targeting control (fraction of control) = 1; inactive.
Knock-down of PLK2 (GeneID 10769) [SID56478648] gave: robust z-score, knock-down alone 0.789; viability, DMSO vs non-targeting control (fraction of control) = 1; inactive.
